Experimental findings from paper doi:10.1101/2020.10.21.348813 are described below.

Holding throughout (test): native gel or EMSA
Background: A gel shift assay detects complexes by their altered migration in electrophoresis.

Assay [1] addresses LSU A143W-R215A-D216A (LSU8mut) (C. reinhardtii) (UniProt P00877).
Assay [2] has as its target LSU E109A-R253A (LSU2mut) (C. reinhardtii) (UniProt P00877).
Assay [3] has as its target Rubisco Large Subunit (LSU) (C. reinhardtii (endogenous in C. reinhardtii cells)) (UniProt P00877).

No constants are given. Whether binding was seen depends on the method and setting. Some entries that bind do so weakly or less than the wild type.

On to “LSU A143W-R215A-D216A (LSU8mut) (from UniProt P00877 3-475)”, for which the binding result in assay [1] is reported as “binds”.
Consider “LSU E109A-R253A (LSU2mut) (from UniProt P00877 3-475)”, for which the binding entry in assay [2] was “no binding”.
With “Rubisco Large Subunit (LSU) (from UniProt P00877 3-475)”, the binding result in assay [3] is listed as “binds”.
